The record followed here is ChEMBL document CHEMBL1921774, “Evaluation of 18F-labeled benzodioxine piperazine-based dopamine D4 receptor ligands: lipophilicity as a determinate of nonspecific binding” (J Med Chem, 2011).

Molecules are shown by their SMILES.

The nature of data set [1]: Octanol-buffer partition coefficient, log P of the compound at pH 7.4 by shake flask method. As to conditions: octanol/water.
Data set [2] is filed under the species Homo sapiens. Briefly: Selectivity ratio of Ki for human dopamine D3 receptor to Ki for human dopamine D4.4 receptor.
The species named for data set [3] is Homo sapiens. Briefly: Selectivity ratio of Ki for human dopamine D2short receptor to Ki for human dopamine D4.4 receptor.
The nature of data set [4]: Lipophilicity, log P of the compound at pH 7.4 by HPLC method. The settings on record: buffer.
For data set [5], the species on record is Homo sapiens. Briefly: Selectivity ratio of Ki for human dopamine D2long receptor to Ki for human dopamine D4.4 receptor.

The logD is the decadic logarithm of the distribution of all forms, ionised or not, between an organic phase and buffer at a given pH. A low value points to a more hydrophilic compound. As a reminder, the logP is a log measure of how a compound divides between an organic and an aqueous phase. Read a high logP as higher lipophilicity.

As for `Fc1ccc(CN2CCN(c3ccc4c(c3)OCCO4)CC2)cn1`, the logD in data set [1] was 1.81. Besides, the Ratio Ki in the data set filed under Homo sapiens [2] is 1100; in the data set listed under Homo sapiens [3], 3000; in the data set filed under Homo sapiens [5], 2000. This compound showed a logP in data set [4] of 2.02.
